Data as given in PubChem BioAssay AID743454 (Peter MacCallum Cancer Centre, 2014)
This is a random part of about 18,000 deposited reagents. In the full data, 450 (2.5%) are marked active. 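Single biological run; no consistent viability z cut-off exists, so the class columns, not z-scores, define the calls.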 Unmarked entries are inactive.

Assay: 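Search for knock-downs that restore vorinostat killing in resistant colon cancer cells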 (primary screen)
Cell system: human HCT116-VR colon cancer cells, selected for vorinostat resistance
Reagents: siRNA pool against human genes, 40 nM siRNA pool
Duration: vorinostat for 24 h, read-out about 72 h after transfection
Challenge: vorinostat at 2.5 µM final
Detection: 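Cell viability by CellTiter-Fluor and caspase 3/7 activity by luminescence, each scaled to mock wells per plate, duplicates averaged, then robust z-scored over all plates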
Scale: viability robust z-score: higher = more viable cells than screen typical; caspase robust z-score: higher = more caspase 3/7 activity than screen typical
Hit rule: 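Hits are knock-downs in viability class RV1/RV2 or caspase class CA1/CA2, excluding ones that killed cells in the no-drug cell-count arm; hits then retested with single siRNAs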

gene	viability hit class	caspase hit class	viability robust z-score	caspase robust z-score
TTC8	no change	no change	1.31	0.34
GDF9	no change	no change	-0.19	-0.97
PNPLA2	no change	no change	1.88	-0.08
OR2G2	no change	no change	0.01	0.09
KCTD13	no change	no change	0.09	0.02
CBFA2T3	no change	no change	0.68	0.34
SLC39A13	no change	no change	-0.12	0.11
TPX2	no change	no change	-4.5	1.42
RNF111	no change	no change	0.92	-0.3
TTLL10	no change	no change	0.29	0.46
SCNN1G	no change	no change	0.07	-0.11
ELANE	no change	no change	0.76	-0.2
TPP2	no change	no change	-0.15	-0.9
ABCB5	no change	no change	0.2	-0.18
UNC45B	no change	no change	-0.01	2.43
SOX6	no change	no change	-0.56	-0.6
HES1	no change	no change	-0.48	1.64
CELF5	no change	no change	-0.42	2.38
CATSPER3	no change	no change	-0.51	0.16
RTN1	no change	no change	-0.49	0.41
OR5AK2	no change	no change	0.82	2
ENPP3	no change	no change	-0.14	-0.18
RIPK1	no change	no change	0.05	0.38
MICALL1	no change	no change	0.79	-0.69
HGFAC	no change	no change	-0.6	0.44
ACADVL	no change	no change	0.64	0.25
MORC3	no change	no change	-0.04	1.02
MAP2	no change	no change	-1.34	1.89

A stretch of the results above, as a working copy:
gene	viability hit class	caspase hit class	viability robust z-score	caspase robust z-score
GDF9	no change	no change	-0.19	-0.97
PNPLA2	no change	no change	1.88	-0.08
OR2G2	no change	no change	0.01	0.09
KCTD13	no change	no change	0.09	0.02
CBFA2T3	no change	no change	0.68	0.34

Further results:
gene	viability hit class	caspase hit class	viability robust z-score	caspase robust z-score
PCDHGA7	no change	no change	-0.06	0.29
MPZ	no change	no change	-2.12	2.96
MTRFR	no change	no change	-1.46	-0.3
CDR2L	no change	no change	0.29	0.76
VDAC3	no change	no change	0.86	-0.56
EMC8	no change	no change	0.28	0.28
SPPL2A	no change	no change	0.42	0.36
PM20D1	no change	no change	-0.02	-0.42
MARK3	no change (active)	CA2 (caspase activation)	-1.4	5.17
SUGT1	no change	no change	-0.48	1.52
AKAP12	no change	no change	-0.24	-0.28
MAP3K10	no change	no change	0.29	-0.06
KIZ	no change	no change	0.2	-1.23
ZDHHC21	no change	no change	1.4	-0.78
KLF1	no change	no change	-0.29	-0.3
ZMIZ2	no change	no change	-0.96	-0.65
RFLNA	no change	no change	-2.54	1.75
MRPS14	no change	no change	1.09	0.3
CCSER2	no change	no change	-0.76	-0.02
SCGB1D1	no change	no change	-0.44	-0.46
LPAR1	no change	no change	-0.39	1.86
IL33	no change	no change	-0.26	-0.49
CITED4	no change	no change	0.78	-0.02
FLRT1	no change	no change	-0.61	4.7
TATDN1	no change	no change	-0.3	0.6
UTP15	no change	no change	-1.98	-0.16
KCTD20	no change	no change	0.53	1.77
RESF1	no change	no change	1.42	-0.4
H3-4	no change	no change	-0.44	-0.42
SLC40A1	no change	no change	0.24	-0.97
CDH23	no change	no change	-1.27	-1.36
ATP5F1B	no change	no change	1.22	0.72
RABEP2	no change	no change	-0.1	3.27
SH2D3A	no change	no change	0.92	4.16
UPK2	no change	no change	0.08	0.1
CCL3L3	no change	no change	-0.11	2.13
LZTS1	no change	no change	-1.83	1.85
LHFPL1	no change	no change	0.48	-0.72
TMEM102	no change	no change	-0.18	1.48
PLAT	no change	no change	0.69	-0.48
SMTN	no change	no change	-0.39	0.97
SPIN3	no change	no change	-0.52	-0.18
PRDM16	no change	no change	1.18	-0.71
OR1J4	no change	no change	0.79	-1.07
P4HA2	no change	no change	-0.52	2.62
